Experimental data: the supplement of paper PMC10849652
Some of the results follow.

By UniProt entry, the sequences of proteins in these tests, tags left out. Where a name states a change or a piece, a line headed by the entry shows the natural chain unless it says otherwise.
UniProt Q9H3S7: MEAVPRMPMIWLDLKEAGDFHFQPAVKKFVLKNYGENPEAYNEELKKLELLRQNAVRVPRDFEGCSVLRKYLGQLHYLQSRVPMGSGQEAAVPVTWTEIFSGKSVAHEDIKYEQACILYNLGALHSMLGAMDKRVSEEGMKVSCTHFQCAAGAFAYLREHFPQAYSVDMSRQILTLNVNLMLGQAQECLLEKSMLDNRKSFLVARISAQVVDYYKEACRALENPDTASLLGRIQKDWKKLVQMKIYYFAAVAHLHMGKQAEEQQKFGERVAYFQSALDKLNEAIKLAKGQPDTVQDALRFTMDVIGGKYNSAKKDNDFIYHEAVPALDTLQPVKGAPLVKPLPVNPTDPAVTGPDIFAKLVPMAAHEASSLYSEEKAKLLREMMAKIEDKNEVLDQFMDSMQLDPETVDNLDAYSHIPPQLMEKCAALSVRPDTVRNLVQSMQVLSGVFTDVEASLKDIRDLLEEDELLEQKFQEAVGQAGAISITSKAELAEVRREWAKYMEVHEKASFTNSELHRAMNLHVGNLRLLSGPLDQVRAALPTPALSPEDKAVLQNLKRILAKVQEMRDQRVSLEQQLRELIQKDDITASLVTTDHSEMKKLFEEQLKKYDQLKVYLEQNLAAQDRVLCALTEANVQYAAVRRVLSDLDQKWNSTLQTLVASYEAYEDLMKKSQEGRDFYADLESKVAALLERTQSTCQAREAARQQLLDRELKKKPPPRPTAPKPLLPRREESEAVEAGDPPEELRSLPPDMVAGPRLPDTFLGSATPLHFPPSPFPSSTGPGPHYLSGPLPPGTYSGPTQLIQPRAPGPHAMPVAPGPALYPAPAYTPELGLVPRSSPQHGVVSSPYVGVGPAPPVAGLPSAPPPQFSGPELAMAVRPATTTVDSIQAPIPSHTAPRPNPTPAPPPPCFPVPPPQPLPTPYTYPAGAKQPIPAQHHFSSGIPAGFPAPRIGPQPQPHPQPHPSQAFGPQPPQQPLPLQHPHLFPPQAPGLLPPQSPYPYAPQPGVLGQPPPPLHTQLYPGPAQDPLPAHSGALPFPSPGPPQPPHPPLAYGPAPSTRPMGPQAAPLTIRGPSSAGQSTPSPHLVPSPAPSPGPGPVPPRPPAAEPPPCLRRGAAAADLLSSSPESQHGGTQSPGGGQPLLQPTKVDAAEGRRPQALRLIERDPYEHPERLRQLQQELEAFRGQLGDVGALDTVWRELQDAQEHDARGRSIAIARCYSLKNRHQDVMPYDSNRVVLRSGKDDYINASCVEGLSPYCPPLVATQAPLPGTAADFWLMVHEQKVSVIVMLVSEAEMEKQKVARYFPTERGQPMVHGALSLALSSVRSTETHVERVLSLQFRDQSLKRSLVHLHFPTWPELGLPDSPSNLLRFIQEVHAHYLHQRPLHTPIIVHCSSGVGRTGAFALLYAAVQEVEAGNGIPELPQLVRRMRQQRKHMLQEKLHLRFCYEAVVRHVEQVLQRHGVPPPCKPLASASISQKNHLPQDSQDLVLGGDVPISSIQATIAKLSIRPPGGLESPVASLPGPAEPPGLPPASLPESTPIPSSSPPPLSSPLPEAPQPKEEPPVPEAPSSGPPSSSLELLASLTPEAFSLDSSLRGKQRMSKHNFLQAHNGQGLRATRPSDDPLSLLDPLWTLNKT
UniProt O95997: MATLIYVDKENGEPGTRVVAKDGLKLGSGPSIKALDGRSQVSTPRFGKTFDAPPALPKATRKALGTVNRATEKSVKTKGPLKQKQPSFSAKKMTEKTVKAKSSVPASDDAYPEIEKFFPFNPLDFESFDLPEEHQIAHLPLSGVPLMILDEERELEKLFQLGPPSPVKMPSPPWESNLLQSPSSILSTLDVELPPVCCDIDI
UniProt Q15185: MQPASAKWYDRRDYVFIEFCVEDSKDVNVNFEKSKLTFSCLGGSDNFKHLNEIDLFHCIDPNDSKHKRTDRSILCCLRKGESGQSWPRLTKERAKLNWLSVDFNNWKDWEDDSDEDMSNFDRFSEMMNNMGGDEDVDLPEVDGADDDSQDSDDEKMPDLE
UniProt P62195, whole entry, looked up: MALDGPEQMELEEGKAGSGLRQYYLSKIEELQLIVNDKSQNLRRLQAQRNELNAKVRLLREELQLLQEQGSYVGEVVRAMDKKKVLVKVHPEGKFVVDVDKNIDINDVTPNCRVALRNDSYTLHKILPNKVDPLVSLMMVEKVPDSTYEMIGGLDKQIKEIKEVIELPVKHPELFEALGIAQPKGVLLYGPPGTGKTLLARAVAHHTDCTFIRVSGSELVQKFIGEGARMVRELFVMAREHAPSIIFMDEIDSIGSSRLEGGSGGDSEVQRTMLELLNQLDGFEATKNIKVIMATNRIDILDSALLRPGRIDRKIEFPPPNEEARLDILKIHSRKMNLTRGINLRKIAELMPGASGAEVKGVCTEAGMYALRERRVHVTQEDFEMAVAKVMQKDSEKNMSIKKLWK
UniProt P17980, whole entry, looked up: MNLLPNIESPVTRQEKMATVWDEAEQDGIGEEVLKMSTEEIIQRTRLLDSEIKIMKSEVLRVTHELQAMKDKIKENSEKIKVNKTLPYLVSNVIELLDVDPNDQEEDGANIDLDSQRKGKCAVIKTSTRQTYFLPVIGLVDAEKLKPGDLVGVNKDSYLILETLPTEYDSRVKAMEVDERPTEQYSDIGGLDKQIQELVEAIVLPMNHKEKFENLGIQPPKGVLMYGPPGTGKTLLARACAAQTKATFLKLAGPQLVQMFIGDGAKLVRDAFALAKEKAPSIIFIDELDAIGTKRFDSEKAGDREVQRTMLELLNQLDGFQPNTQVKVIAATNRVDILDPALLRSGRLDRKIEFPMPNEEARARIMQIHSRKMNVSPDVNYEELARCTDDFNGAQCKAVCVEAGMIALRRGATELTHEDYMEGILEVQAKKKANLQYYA
UniProt O43242, whole entry, looked up: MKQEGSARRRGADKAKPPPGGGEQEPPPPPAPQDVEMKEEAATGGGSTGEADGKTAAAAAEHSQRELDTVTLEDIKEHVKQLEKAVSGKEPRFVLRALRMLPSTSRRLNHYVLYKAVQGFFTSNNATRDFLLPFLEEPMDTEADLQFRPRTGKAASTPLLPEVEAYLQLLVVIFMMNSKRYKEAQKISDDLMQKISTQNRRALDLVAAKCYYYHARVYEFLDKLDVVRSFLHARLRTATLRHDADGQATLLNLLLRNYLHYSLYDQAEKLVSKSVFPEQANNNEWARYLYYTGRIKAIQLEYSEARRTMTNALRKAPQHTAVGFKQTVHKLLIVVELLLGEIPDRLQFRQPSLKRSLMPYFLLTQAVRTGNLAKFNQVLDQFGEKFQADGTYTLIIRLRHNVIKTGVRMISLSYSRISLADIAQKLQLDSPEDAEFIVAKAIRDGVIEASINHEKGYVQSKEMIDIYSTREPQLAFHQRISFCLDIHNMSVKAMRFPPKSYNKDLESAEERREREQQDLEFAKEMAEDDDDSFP
UniProt P62333, whole entry, looked up: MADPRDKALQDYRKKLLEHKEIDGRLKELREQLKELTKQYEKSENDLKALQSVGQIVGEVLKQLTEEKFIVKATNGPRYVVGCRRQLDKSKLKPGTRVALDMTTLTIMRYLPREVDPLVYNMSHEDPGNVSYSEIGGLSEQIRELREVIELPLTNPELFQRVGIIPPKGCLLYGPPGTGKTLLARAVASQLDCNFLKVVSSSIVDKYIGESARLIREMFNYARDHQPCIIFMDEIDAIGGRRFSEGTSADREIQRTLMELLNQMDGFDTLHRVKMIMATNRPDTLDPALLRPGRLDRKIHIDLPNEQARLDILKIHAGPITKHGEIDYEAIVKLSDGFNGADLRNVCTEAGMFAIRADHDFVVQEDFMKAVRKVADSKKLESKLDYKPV
UniProt Q7Z7A4: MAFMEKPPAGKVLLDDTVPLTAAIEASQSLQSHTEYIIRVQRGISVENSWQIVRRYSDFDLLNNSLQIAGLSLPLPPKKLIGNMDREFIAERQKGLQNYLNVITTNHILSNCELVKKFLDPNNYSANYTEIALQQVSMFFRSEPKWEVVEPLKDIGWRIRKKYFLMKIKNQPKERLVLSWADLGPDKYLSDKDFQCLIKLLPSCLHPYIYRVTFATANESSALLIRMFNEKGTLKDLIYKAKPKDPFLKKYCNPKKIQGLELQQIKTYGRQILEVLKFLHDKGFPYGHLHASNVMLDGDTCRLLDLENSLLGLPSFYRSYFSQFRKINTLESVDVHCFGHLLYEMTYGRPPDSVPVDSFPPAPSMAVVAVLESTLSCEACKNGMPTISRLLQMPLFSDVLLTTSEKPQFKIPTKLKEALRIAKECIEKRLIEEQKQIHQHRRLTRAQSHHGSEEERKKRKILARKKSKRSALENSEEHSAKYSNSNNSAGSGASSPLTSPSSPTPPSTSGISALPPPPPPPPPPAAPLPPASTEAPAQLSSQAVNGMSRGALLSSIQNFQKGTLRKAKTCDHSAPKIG
UniProt Q13332: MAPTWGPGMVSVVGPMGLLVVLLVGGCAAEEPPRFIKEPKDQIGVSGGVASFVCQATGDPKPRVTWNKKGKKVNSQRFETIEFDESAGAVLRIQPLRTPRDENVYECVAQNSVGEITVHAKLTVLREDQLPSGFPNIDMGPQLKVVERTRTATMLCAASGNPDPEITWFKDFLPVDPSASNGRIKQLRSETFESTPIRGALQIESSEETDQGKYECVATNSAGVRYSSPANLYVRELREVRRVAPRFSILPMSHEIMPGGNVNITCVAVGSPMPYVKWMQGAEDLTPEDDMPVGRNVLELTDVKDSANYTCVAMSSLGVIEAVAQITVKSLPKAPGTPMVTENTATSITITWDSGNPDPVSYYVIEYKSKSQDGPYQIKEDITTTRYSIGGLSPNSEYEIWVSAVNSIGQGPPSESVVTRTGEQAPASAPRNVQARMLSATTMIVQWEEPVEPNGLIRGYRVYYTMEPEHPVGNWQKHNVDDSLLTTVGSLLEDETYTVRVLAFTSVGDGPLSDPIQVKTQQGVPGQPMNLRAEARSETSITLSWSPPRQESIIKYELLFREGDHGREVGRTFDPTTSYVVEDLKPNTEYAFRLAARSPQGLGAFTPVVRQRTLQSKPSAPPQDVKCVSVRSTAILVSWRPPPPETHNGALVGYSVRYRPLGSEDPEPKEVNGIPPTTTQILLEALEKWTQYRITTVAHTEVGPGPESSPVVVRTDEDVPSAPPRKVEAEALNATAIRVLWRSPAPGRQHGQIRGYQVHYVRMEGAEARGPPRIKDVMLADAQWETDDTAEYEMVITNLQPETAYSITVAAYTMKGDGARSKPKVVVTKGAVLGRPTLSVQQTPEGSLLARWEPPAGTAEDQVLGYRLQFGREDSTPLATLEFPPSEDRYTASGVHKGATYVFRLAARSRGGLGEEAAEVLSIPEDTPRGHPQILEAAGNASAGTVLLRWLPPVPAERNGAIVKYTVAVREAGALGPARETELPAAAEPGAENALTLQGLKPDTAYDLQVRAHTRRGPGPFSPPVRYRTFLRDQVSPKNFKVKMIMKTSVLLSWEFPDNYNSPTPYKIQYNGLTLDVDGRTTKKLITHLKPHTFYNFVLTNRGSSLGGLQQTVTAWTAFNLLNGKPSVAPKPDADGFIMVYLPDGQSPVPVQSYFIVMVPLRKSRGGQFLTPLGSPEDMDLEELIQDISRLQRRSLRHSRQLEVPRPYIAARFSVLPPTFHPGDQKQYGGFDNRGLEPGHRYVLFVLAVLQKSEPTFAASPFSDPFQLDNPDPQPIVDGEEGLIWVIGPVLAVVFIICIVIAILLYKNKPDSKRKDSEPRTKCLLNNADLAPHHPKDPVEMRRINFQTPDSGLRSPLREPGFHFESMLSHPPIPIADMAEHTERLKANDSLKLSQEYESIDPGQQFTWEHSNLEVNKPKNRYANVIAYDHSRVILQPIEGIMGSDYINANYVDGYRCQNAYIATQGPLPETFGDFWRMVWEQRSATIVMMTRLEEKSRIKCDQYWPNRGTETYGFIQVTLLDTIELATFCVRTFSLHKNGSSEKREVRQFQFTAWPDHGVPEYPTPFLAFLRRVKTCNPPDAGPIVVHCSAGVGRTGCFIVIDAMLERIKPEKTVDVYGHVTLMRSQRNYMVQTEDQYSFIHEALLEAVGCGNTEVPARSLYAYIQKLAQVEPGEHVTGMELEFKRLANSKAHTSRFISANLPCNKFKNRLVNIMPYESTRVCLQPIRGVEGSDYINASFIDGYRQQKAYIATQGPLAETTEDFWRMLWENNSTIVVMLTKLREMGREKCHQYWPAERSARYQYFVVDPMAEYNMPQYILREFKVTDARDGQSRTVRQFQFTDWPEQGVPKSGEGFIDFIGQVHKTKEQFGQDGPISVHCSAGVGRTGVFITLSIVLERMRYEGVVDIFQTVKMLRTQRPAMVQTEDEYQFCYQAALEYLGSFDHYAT

Assays:
Assay in all cases: log2 fold change, soluble protein after heating vs DMSO (PISA); higher = thermal stabilisation; K562 cells, 10 uM, 30 min; active = over 0.2 and 3.5 SD of the protein, either way, in both replicates (recomputed)
saracatinib = compound: CN1CCN(CCOc2cc(OC3CCOCC3)c3c(Nc4c(Cl)ccc5c4OCO5)ncnc3c2)CC1 [saracatinib]
Summary of the method: (§1)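 Quantification of soluble protein used TMTpro 16plex LC-MS/MS, with channel sums equalised. Samples were the supernatant after 21,000xg for 90 min of pooled aliquots from K562 cells (2×10^6 cells/mL) treated with 10 μM compound for 30 min, heated for 3 min over 48°C-58°C, and extracted in PBS with 0.5% NP-40 at 4°C. Values, from duplicates, describe thermal stability against control samples on a log2 fold-change scale.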

sotrastaurin = compound: CN1CCN(c2nc(C3=C(c4c[nH]c5ccccc45)C(=O)NC3=O)c3ccccc3n2)CC1 [sotrastaurin]
Summary of the method: as §1

Tubastatin A = compound: CN1CCc2c(c3ccccc3n2Cc2ccc(C(=O)NO)cc2)C1 [Tubastatin A]
Summary of the method: as §1

[1] = compound: CNC(=O)C1=CC=CC=C1NC2=NC(=NC=C2Cl)NC3=C(C=C(C=C3)N4CCOCC4)OC
Summary of the method: as §1

defactinib = compound: CNC(=O)c1ccc(Nc2ncc(C(F)(F)F)c(NCc3nccnc3N(C)S(C)(=O)=O)n2)cc1 [defactinib]
Summary of the method: as §1

rucaparib = compound: CNCc1ccc(-c2[nH]c3cc(F)cc4c3c2CCNC4=O)cc1 [rucaparib]
Summary of the method: as §1

[2] = compound: CNc1nc(-c2ccc3c(N)n[nH]c3c2)cc(N2C[C@@H](C(=O)NC3CCCCC3)CC[C@H]2C)n1
Summary of the method: as §1

encorafenib = compound: COC(=O)N[C@@H](C)CNc1nccc(-c2cn(C(C)C)nc2-c2cc(Cl)cc(NS(C)(=O)=O)c2F)n1 [encorafenib]
Summary of the method: as §1

[3] = compound: COC(=O)[C@H](CCSC)NC(=O)C1=C(C=C(C=C1)NC[C@H](CS)N)C2=CC=CC=C2
Summary of the method: as §1

[4] = compound: COC1=CC=C(C=C1)CN2C=CC3=C2C=C(C=C3)C(=O)NO
Summary of the method: as §1

filanesib = compound: CON(C)C(=O)N1N=C(c2cc(F)ccc2F)S[C@@]1(CCCN)c1ccccc1 [filanesib]
Summary of the method: as §1

zotarolimus = compound: CO[C@H]1C[C@@H]2CC[C@@H](C)[C@@](O)(O2)C(=O)C(=O)N2CCCC[C@H]2C(=O)O[C@H]([C@H](C)C[C@@H]2CC[C@H](n3cnnn3)[C@H](OC)C2)CC(=O)[C@H](C)/C=C(\C)[C@@H](O)[C@@H](OC)C(=O)[C@H](C)C[C@H](C)/C=C/C=C/C=C/1C [zotarolimus]
Summary of the method: as §1

idasanutlin = compound: COc1cc(C(=O)O)ccc1NC(=O)[C@@H]1N[C@@H](CC(C)(C)C)[C@](C#N)(c2ccc(Cl)cc2F)[C@H]1c1cccc(Cl)c1F [idasanutlin]
Summary of the method: as §1

alisertib = compound: COc1cc(Nc2ncc3c(n2)-c2ccc(Cl)cc2C(c2c(F)cccc2OC)=NC3)ccc1C(=O)O [alisertib]
Summary of the method: as §1

[5] = compound: COc1cc2nc(-c3cc(F)ccc3O)nc(N[C@@H]3CNC[C@H]3C(C)(C)O)c2cc1OC
Summary of the method: as §1

gefitinib = compound: COc1cc2ncnc(Nc3ccc(F)c(Cl)c3)c2cc1OCCCN1CCOCC1 [gefitinib]
Summary of the method: as §1

[6] = compound: COc1cccc2cc(-c3nc([C@H]4CC[C@H](C(=O)O)CC4)n4ncnc(N)c34)[nH]c12
Summary of the method: as §1

lapatinib = compound: CS(=O)(=O)CCNCc1ccc(-c2ccc3ncnc(Nc4ccc(OCc5cccc(F)c5)c(Cl)c4)c3c2)o1 [lapatinib]
Summary of the method: as §1

pictilisib = compound: CS(=O)(=O)N1CCN(Cc2cc3nc(-c4cccc5[nH]ncc45)nc(N4CCOCC4)c3s2)CC1 [pictilisib]
Summary of the method: as §1

alvocidib = compound: CN1CC[C@H](c2c(O)cc(O)c3c(=O)cc(-c4ccccc4Cl)oc23)[C@H](O)C1 [alvocidib]
Summary of the method: as §1

Measured: log2 fold change

PTPN23 (UniProt Q9H3S7)
inactive: saracatinib -0.007 | sotrastaurin -0.13 | Tubastatin A 0.112 | [1] 0.055 | defactinib -0.169 | rucaparib 0.074 | [2] -0.055 | encorafenib 0.043 | [3] -0.023 | [4] 0.12 | filanesib 0.038 | zotarolimus 0.059 | idasanutlin -0.038 | alisertib 0.002 | [5] 0.044 | gefitinib 0.041 | [6] -0.008 | lapatinib -0.012 | pictilisib 0.037

PTTG1 (UniProt O95997)
inactive: saracatinib -0.061 | sotrastaurin -0.004 | Tubastatin A 0.141 | [1] -0.145 | defactinib -0.029 | rucaparib -0.145 | [2] -0.088 | encorafenib -0.001 | [3] 0.031 | [4] 0.011 | filanesib 0.052 | zotarolimus -0.077 | idasanutlin -0.011 | alisertib -0.022 | [5] -0.156 | gefitinib -0.048 | [6] -0.058 | lapatinib -0.013 | pictilisib -0.07

PTGES3 (UniProt Q15185)
inactive: saracatinib -0.023 | sotrastaurin -0.057 | Tubastatin A 0.023 | [1] 0.088 | defactinib -0.205 | rucaparib -0.059 | [2] 0.034 | encorafenib 0.032 | [3] -0.068 | [4] 0.23 | filanesib -0.091 | zotarolimus 0.055 | idasanutlin 0.004 | alisertib 0.016 | [5] -0.044 | gefitinib 0.044 | [6] -0.038 | lapatinib 0.007 | pictilisib 0.027

PSMC5 (UniProt P62195)
inactive: saracatinib -0.041 | sotrastaurin -0.004 | Tubastatin A -0.013 | [1] -0.028 | defactinib 0.066 | rucaparib 0.025 | [2] 0.065 | encorafenib 0.02 | [3] 0.009 | [4] -0.024 | filanesib 0.037 | zotarolimus -0.018 | idasanutlin 0 | alisertib -0.019 | [5] -0.053 | gefitinib -0.025 | [6] -0.031 | lapatinib 0.052 | pictilisib -0.05

QSOX1 (UniProt O00391)
inactive: saracatinib 0.122 | sotrastaurin 0.137 | alvocidib -0.066 | Tubastatin A 0.083 | [1] -0.038 | defactinib -0.038 | rucaparib 0.068 | [2] -0.104 | encorafenib -0.114 | [3] -0.003 | [4] 0.079 | filanesib 0.002 | zotarolimus -0.124 | idasanutlin 0.017 | alisertib 0.243 | gefitinib 0.02 | [6] -0.153 | pictilisib 0.022

PSMC3 (UniProt P17980)
inactive: saracatinib -0.043 | sotrastaurin -0.035 | Tubastatin A 0.011 | [1] 0 | defactinib 0.06 | rucaparib 0.033 | [2] 0.003 | encorafenib 0.026 | [3] 0.004 | [4] -0.035 | filanesib 0.043 | zotarolimus 0.001 | idasanutlin 0.045 | alisertib -0.056 | [5] -0.015 | gefitinib -0.045 | [6] -0.038 | lapatinib 0.047 | pictilisib 0.013

PSMD3 (UniProt O43242)
inactive: saracatinib -0.06 | sotrastaurin -0.015 | Tubastatin A 0.016 | [1] 0.007 | defactinib 0.083 | rucaparib 0.037 | [2] 0.051 | encorafenib 0.031 | [3] 0.003 | [4] -0.058 | filanesib 0.061 | zotarolimus 0.021 | idasanutlin 0.003 | alisertib -0.075 | [5] -0.089 | gefitinib -0.035 | [6] -0.011 | lapatinib 0.061 | pictilisib -0.023

PSMD12 (UniProt O00232)
inactive: saracatinib -0.024 | sotrastaurin -0.029 | Tubastatin A 0.04 | [1] 0.033 | defactinib 0.048 | rucaparib 0.014 | [2] 0.054 | encorafenib 0.031 | [3] -0.032 | [4] -0.015 | filanesib 0.047 | zotarolimus 0.013 | idasanutlin -0.025 | alisertib -0.096 | [5] -0.07 | gefitinib -0.018 | [6] -0.067 | lapatinib 0.096 | pictilisib -0.059

PSMC6 (UniProt P62333)
inactive: saracatinib -0.01 | sotrastaurin 0.015 | Tubastatin A -0.025 | [1] -0.003 | defactinib 0.079 | rucaparib 0.04 | [2] 0.009 | encorafenib 0.035 | [3] 0.026 | [4] -0.059 | filanesib 0.083 | zotarolimus -0.003 | idasanutlin 0.005 | alisertib -0.093 | [5] -0.024 | gefitinib -0.038 | [6] -0.057 | lapatinib 0.049 | pictilisib -0.054

PXK (UniProt Q7Z7A4)
inactive: saracatinib -0.023 | sotrastaurin 0.004 | Tubastatin A -0.033 | [1] 0.03 | defactinib -0.025 | rucaparib -0.027 | [2] -0.007 | encorafenib 0.08 | [3] -0.048 | [4] 0.105 | filanesib -0.005 | zotarolimus 0.021 | idasanutlin -0.035 | alisertib -0.057 | [5] 0.069 | gefitinib -0.001 | [6] 0.015 | lapatinib 0.03 | pictilisib 0.127

PTPRS (UniProt Q13332)
inactive: saracatinib 0.036 | sotrastaurin -0.138 | [1] 0.009 | defactinib -0.192 | [2] -0.132 | [3] 0.13 | [4] 0.518 | filanesib 0.022 | idasanutlin 0.016 | gefitinib 0.115 | pictilisib 0.262

PSME4 (UniProt Q14997)
inactive: saracatinib -0.006 | sotrastaurin -0.035 | Tubastatin A 0.025 | [1] -0.027 | defactinib 0.037 | rucaparib -0.023 | [2] 0.067 | encorafenib 0.066 | [3] -0.029 | [4] -0.023 | filanesib -0.091 | zotarolimus 0.005 | idasanutlin -0.123 | alisertib -0.045 | [5] -0.03 | gefitinib -0.071 | [6] 0.037 | lapatinib 0.044 | pictilisib -0.045

Two successive records out of the list so far, for reference:
PTGES3 (UniProt Q15185)
inactive: saracatinib -0.023 | sotrastaurin -0.057 | Tubastatin A 0.023 | [1] 0.088 | defactinib -0.205 | rucaparib -0.059 | [2] 0.034 | encorafenib 0.032 | [3] -0.068 | [4] 0.23 | filanesib -0.091 | zotarolimus 0.055 | idasanutlin 0.004 | alisertib 0.016 | [5] -0.044 | gefitinib 0.044 | [6] -0.038 | lapatinib 0.007 | pictilisib 0.027

PSMC5 (UniProt P62195)
inactive: saracatinib -0.041 | sotrastaurin -0.004 | Tubastatin A -0.013 | [1] -0.028 | defactinib 0.066 | rucaparib 0.025 | [2] 0.065 | encorafenib 0.02 | [3] 0.009 | [4] -0.024 | filanesib 0.037 | zotarolimus -0.018 | idasanutlin 0 | alisertib -0.019 | [5] -0.053 | gefitinib -0.025 | [6] -0.031 | lapatinib 0.052 | pictilisib -0.05
